Data taken from article PMC11651612.
These are yes or no findings as the source states them, for the method shown. Binding seen in cells or lysates may run through a third protein. These calls come from enrichment with a bait or labelling near it, and not all partners need be listed.

T1: Cdc10-mCherry (C. neoformans) (UniProt J9VMT9)
T1 sequence: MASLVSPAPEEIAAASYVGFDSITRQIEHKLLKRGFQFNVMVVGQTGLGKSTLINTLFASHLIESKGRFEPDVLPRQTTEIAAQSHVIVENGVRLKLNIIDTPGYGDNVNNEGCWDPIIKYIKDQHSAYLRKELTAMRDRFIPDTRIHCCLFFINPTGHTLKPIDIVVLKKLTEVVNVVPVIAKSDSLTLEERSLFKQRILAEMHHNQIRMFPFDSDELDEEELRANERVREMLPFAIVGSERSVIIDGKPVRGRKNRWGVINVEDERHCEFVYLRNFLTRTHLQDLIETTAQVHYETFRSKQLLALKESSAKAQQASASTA

T2: Cdc3-mCherry (C. neoformans) (UniProt J9VUF2)
T2 sequence: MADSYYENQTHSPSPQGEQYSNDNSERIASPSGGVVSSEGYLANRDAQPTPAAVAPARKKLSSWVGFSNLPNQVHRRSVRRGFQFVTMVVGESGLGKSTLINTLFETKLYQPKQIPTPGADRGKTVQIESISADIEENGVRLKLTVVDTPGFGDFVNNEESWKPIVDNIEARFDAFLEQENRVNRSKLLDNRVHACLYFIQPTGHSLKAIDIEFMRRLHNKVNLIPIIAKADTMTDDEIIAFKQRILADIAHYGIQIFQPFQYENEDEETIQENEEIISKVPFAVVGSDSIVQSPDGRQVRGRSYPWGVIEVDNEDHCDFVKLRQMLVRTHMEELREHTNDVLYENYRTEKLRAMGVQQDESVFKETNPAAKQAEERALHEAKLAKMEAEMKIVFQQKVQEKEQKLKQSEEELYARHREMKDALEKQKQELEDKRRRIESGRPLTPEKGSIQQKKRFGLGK

B1: Septin ring protein CDC3 (protein, UniProt J9VUF2 1-461)
chain: MADSYYENQTHSPSPQGEQYSNDNSERIASPSGGVVSSEGYLANRDAQPTPAAVAPARKKLSSWVGFSNLPNQVHRRSVRRGFQFVTMVVGESGLGKSTLINTLFETKLYQPKQIPTPGADRGKTVQIESISADIEENGVRLKLTVVDTPGFGDFVNNEESWKPIVDNIEARFDAFLEQENRVNRSKLLDNRVHACLYFIQPTGHSLKAIDIEFMRRLHNKVNLIPIIAKADTMTDDEIIAFKQRILADIAHYGIQIFQPFQYENEDEETIQENEEIISKVPFAVVGSDSIVQSPDGRQVRGRSYPWGVIEVDNEDHCDFVKLRQMLVRTHMEELREHTNDVLYENYRTEKLRAMGVQQDESVFKETNPAAKQAEERALHEAKLAKMEAEMKIVFQQKVQEKEQKLKQSEEELYARHREMKDALEKQKQELEDKRRRIESGRPLTPEKGSIQQKKRFGLGK
B2: Glutaredoxin (protein, UniProt J9VKY5 1-146)
chain: MSFTALRRLTTLSTHITRTPISTRYFATTQTAKIGSSISTPNMTADVKSLVDKAIADNKVVVFSKTYCPYCKRAKSYLAEDTKDIEILELDERDDGAAIQAYLKELNGQGTVPHVYINKEFIGGSSDLLKLSHEQVKQKISAASSA
B3: Molybdopterin binding domain-containing protein (protein, UniProt J9VQ43 1-337)
chain: MFIPFSRLLQTVARPFAPLPSRSLPIRIAFGRIYLRTMSTEAPIVPTSPSSVADPLGKGKYIQTAGCIIVGDEVLNGKTKDTNSNFFAQYCFDLGIELKRIEVIADDEDEIIEAARRMTEKYDFVVTSGGIGPTHDDITYASLAKAFNLPLVHHPETLRRMWALTTPERRAELEKATPAQREARERMALFPTQKEEGDVKSEAIFVEADKWVPVVRLAGKLCVFPGIPSLFQQLLLALTPYLPLPPASSKPFRHLIYTGKPESAIAPYLTELQARVKKEGIRIGSYPYLYQGVHISLIGHNIERVKELGREVIQEVDGKVVAEGKLGGDSTSTTSKM
B4: Transcription elongation factor SPT5 (protein, UniProt J9VJH9 1-1151)
chain: MSDIEVKSSPPESPVQEQEETRLAGRKRARVMDPDEEDDDTQVVNNQDEEKDAKEEDDEEGGNGQAEGADEGEDDEDDDEDDDDDEDDEDEDDDGERRAKRRRKQKRFRFLDVEAEVDDEDEEEDEDNDYGDVAEFIDEAPEDVGARDDHQHRRLNRVFGRNEEEDVHDIVQRLKERHAGAARYNGDSDAVPQRLLMPGVNDPSLWKVVVKSGREHAICASIFRKVFAQQYSANPIDVISVFCRDSIPGMIFIEARQSASVSAAVNGIVGIFMSKGVNLVPIEEMAPLLKMKKKDVNLTPGMWVRMKRGKHAGDLAQVVDVDQITSGVVGIKFIPRIDLTPREKRKERIAIGKPGGVRPPARLFAYDDVRKIYGRQSVRQGAQGSYLFDNDEYVDGFCIKDVKIPAVATEDVNPTLEEISRFTGDDDSTAKFDLSAIADANKNLSTSLLFPGDKIEVYEGEQTGLYGIVEAVSPDVIAIKAEGGEVHGQTVEVPARSVRKRFDVGEHVKVLGGKHTDASGMVVEVKGDIVTLMSDLGEQEIKVFSKDLRKAADTTNLTATKGLYDVHDMVMLDSTTAGLVTKVEGGLLRILDQNGAAKSVSPEQVSIRRDNKRFAVATDSQGNDMKVGDNMKETDGEMRQGEVINIFRSIFVFLYNREYTDNFGVFVARANSLISVTPKSAVNDLTKINPALNQQLPYGGASLMPAPTANLNRNRLINTLVVVTKGTSKGLIGVIKDVQGENARVELKHNNKTLSVNLASLKRKDQKTGATFPLETAGIASAAGGYGTRPNAGQYDINPYGGATAMHPSMGGQTPALMGGRTPAVRFGQTPNPYAAGVQNGKTPNPYATGVGGKTPSAAYASGGKTPAWGASGGKTPAYGMASGGKTPAYGIQGGKTPNAYAMGPPGPSGGRTPAYGTYGRPEASGSRPSAMPPPPAPYSAPYSEPTPAGNGAPTPAAPGNAYTAPTPYGAPTPYIAPTPGMPSLSAPTPGPGGGIAPTPFGAPTPYGVQSYGASALQQRGLPWDWALDFRNVIVEIGPSYRPGSRNPLHFKRGFFDGKRFGYNDIIGESVRAILLDDSSVVEEIPAEYLRPAKADSQGQVVVVIGGGPEQKGQQRTTQYENGGSWMMELEGGDMAPLVVDGADLCRIWKV
B5: Glutathione transferase (protein, UniProt J9VLS0 1-249)
chain: MPHQIILHHLNNSRSDRIFWTLEELNLPYDVQVHFRLPTRSAPPSLHKVSPLGRAPALILDGRLLTESAYIIHTLLSLPEVQQAAQKGEIDVQVENTNDDVFWSHFAEASMMNLLQGMATVGATSQGWLSGKVPGLPELSEDEKKGIQKYSSWVQDGYFRPNIQSPIDFAENFLAKQDAPFFSGTSKPGEGDFMMFFAINSLLGGSRADMGFKVGPNLKKWYDIVLSRPAGKKALERLKQEEESAKAKI
B6: Ribosome assembly factor mrt4 (protein, UniProt J9VIQ4 1-245)
chain: MPKSKRSRLTTLSKTPIRSTKASKQALVNEIRENVDKYDYCWMFSVGDMRNDGLKEVRAQWRGTGRFFFGKGKVMAKALGDTPETEYQDGLSQIAKRLKGQIGLFFTSHPVDETVEWFDSWHKPEYARMGAKSTMDITLPAGPLLTPFTEPPSGDPFPHSMEPQLRALGLTTSLVRGIPSLNNPHVLCVKGEKLTSEKCRILKLLAIQMADFRIHLGSRWSKESGFVEGKELDEGSEKEDEMEED
B7: Replication factor C subunit 2/4 (protein, UniProt J9VWI5 1-363)
chain: MSAFAPRQAAPIKDPKLQPWVEKYRPKTIDDVSSQDNTVAVLRKALASTNLPHMLFYGPPGTGKTSTILALARQLFGPDLFRARVLELNASDERGISVVREKIKSFARETPRHAPGISSDGKEYPCPPFKLIILDEADSMTQDAQSALRRIMETYSKITRFCLVCNYVTRIIEPLASRCSKFRFKPLEQGSTRARMEMIAENEGVQTDPGVISLILELAGGDLRKAITYLQTAQRLHSSIEPPTPVSALSIHEISGVVPEDLITDLLAAMGVDRQIGIDRSLARGFDGVMVAVKRVEREGWSVGQVLEQIHDALIPIPSIPAVQKSLAGIAIAECDKGLCEGGDEELQLLDCMLRIKDIMGRL
B8: Vigilin 1 (protein, UniProt J9VS18 1-1289)
chain: MAFSAADLQKQHQELEGAPDPFPALAHAPVPVAKKVQSAPAPLDTSSEDAFPSLAAPSAPSSKGNVKPAISMWASKSSAVKTGVAKPMAPGGLGRTGTPTAGSHPFAETFSIPANELVQGKAASDVVKKVQDQTGAIVESSTQMRTGLKTFHVKAADQKKLAQAKRMIEGGLRKPVTVQVEVPITTLGTIIGPKGATLKGITDATGAKVDVPRRETLPSYTPKDNGSDAGSDDEDGEPQVSITISGPATGCTDAKDRILSLISHKMSQTSTSIKTIPSAFYTIISTQVSELEQGPGEGKVTVKVPIPAVWKALERQAQADAEGEKVVVDGEAPIKVKGDRENVKAVIDEITKSYDSLVQSFNLKKVSIPKRQHRFLIGSAAEDILAQTGCVVELPPVDDPSDRVVIRGPPAKLVAAQSLVFEKANAVSVEPLDLVSVFRRTTSDPVTHATNILRYLRASKLKDVSSAYPNVQIFPPFPSTVANTGTVIIEIVSEDGEEVSKVVDEITNLAKGILPSAVSIVQVDHLAHSLLVGKKGTRIAQFEKTHNVTVVFPPASEESSNVLLVYTGPADKDVKLEEVFEGASKDLTELAKEVADIKTEILEVEKKWHKYIIGQNGSVLNAIIGEDALVSVKVGTSTTKFPSTGSEDSVTIRGPRNEVDRVTKQIKQVVEDAKNDDIVNGYTVKFDVEKKYVPHLVGQAGAAINKLRETLGVKVNFEDAPEKETKKGAKKVLVNCSIVGRKEPVEEAKKRLIAQIEKLEDETTEVLSIKRAIQPALIGAGGKYAIRLEEKYGVKLSFPRDSKDKESGANPDQVTIRGGRKGVAAVKAELLEAAAFETESRQEATFKVPSKAVAQIVGKGGATINAIKNDTGAQIDIEREGGEDKQTTITVRGDKQAIAAAKEAVLNVVKEVGDEITVELTIEQKYHRNLIGQGGQNLRDLIASAGGPSEGYKQAGLVTFPKNGDESTDKVRLRGDSKVVKKIQTELEKQVAVLKDTIVIGVVVPATQHATKIGRGGMALQDLQRKTGAVIHFPGSRQYSSIGEIENQDDLEGVSEGDIVKVIGTKEVTQKAAELLQVTSERGQRSDSRQGRATPDLVSCPVSIPNKYYHAIAETPNLIRQIRAVGGYLNIPQPAPAKPSLKRPEPTSGDDLAAKTARIDLDGDETVPDVQGEWSLVKNFEGADDEKSEWVVRAKEEDLERAVKVLEQALEKARKATHVGYLTGLPRSAFPRIIGSKGATISRMRLETGADIQVGKEDDLITIIGDEESVLQAKDAILSIVSRPSRERY

The binders below were run against T1, Cdc10-mCherry (C. neoformans) (assay: affinity purification with mass spectrometry; mCherry-tagged septin captured from C. neoformans lysate on RFP-Trap agarose, 4 h at 4°C, washed with TBS with 2 M urea pH 7.5; GeLC-MS/MS; untagged H99 as negative control; hits logFC >2 and adjusted p <0.001 (text-named hits <0.05); exponential cultures at ~25°C or shifted to 37°C for 2 h; N = 5).
B1 was tested, and the binding was “binds”. B2 was tested, and the binding was “binds”. B3 was tested, and the binding was “binds”.

What follows are binders tested against T2, Cdc3-mCherry (C. neoformans) in the same assay as above.
For B4, the binding was “binds”. For B5, the binding was “binds”. In the case of B6, the binding is reported as “binds”. With B7 the binding was “binds”. B8 was tested, and the binding was “binds”.
